PubChem BioAssay AID686937, Drosophila RNAi Screening Center, 2013
The screen tested about 23,000 reagents; this is an unselected part of those that have a named target and a result. 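Reduced-secretion tags in replicate 1 do not always agree with the z-scores; no criterion for assigning the tags was given.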 Names joined by + are all predicted targets of the reagent. Not given: the amount of reagent.

Purpose: 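Genes in the fly needed for secretion of protein constitutively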 (primary screen)
Cell system: Drosophila S2 cells expressing secreted horseradish peroxidase
Knock-down reagent: long dsRNA against Drosophila genes
Duration: about 5.5 days (5 days dsRNA, then 12 h reporter induction)
Treatment: reporter expression induced after 5 days of dsRNA, read 12 h later; inducer not stated
Detection: 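Chemiluminescent measurement of peroxidase in the medium 12 h after reporter induction, following 5 days of dsRNA, given as a z-score per plate; higher means more secretion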
Scale: z-score: higher = more reporter secreted into medium

Target gene | amplicon | z-score, replicate 1 | z-score, replicate 2 | z-score, replicate 3 | z-score, replicate 4 | phenotype, replicate 1
Vha100-3 | DRSC05760 | 0.34 | 0.42 | – | – | –
CG11825 | DRSC06090 | 0.18 | 0.3 | – | – | –
CycY | DRSC02420 | -0.21 | 0.17 | – | – | –
Diap1 | DRSC11404 | -6.36 | -5.93 | – | – | reduced secretion
CG10013 | DRSC14175 | 0.3 | 0.46 | – | – | –
BNIP3 | DRSC11761 | 0.15 | 0.04 | – | – | –
RpS15 | DRSC07151 | -3.99 | -2.13 | – | – | reduced secretion
CG10584 | DRSC11624 | 0.29 | 0.42 | – | – | –
Phk-3 | DRSC04547 | 0.43 | 0 | – | – | –
CG31730 | DRSC01308 | 0.51 | 0.08 | – | – | –
CG34247 | DRSC09933 | 0.28 | -0.02 | – | – | –
Rab14 | DRSC03403 | 0.23 | 0.22 | – | – | –
Stim | DRSC20158 | 0.45 | 0.38 | – | – | –
CHKov2 | DRSC14262 | 0.26 | 0.62 | – | – | –
Sems | DRSC11626 | 0.34 | 0.5 | – | – | –
Glg1 | DRSC11815 | 0.26 | 0.25 | – | – | –
Glg1 | DRSC11816 | 0.32 | 0.14 | – | – | –
Glg1 | DRSC11817 | 0.53 | 0.51 | – | – | –
Hpf1 | DRSC12202 | 0.3 | 0.35 | – | – | –
Sin1 | DRSC05965 | 0.35 | 0.37 | – | – | –
CG34235 + CG30058 + CG34312 | DRSC22142 | -0.17 | 0.39 | – | – | –
cuff | DRSC06315 | 0.56 | 0.58 | – | – | –

Part of the list above, showing only “z-score, replicate 1”:
Phk-3 [DRSC04547] = 0.43
CG31730 [DRSC01308] = 0.51
CG34247 [DRSC09933] = 0.28

Additional results follow.
Target gene | amplicon | z-score, replicate 1 | z-score, replicate 2 | z-score, replicate 3 | z-score, replicate 4 | phenotype, replicate 1
Cyp12e1 | DRSC16622 | 0.2 | 0.34 | – | – | –
Mip | DRSC10639 | 0.46 | 0.48 | – | – | –
CG8312 | DRSC16406 | 0.23 | 0.36 | – | – | –
ast | DRSC00803 | 0.5 | 0.38 | – | – | –
tj | DRSC02011 | -0.14 | 0.01 | – | – | –
CG5902 | DRSC15912 | 0.14 | 0.15 | – | – | –
Drak | DRSC19778 | 0.15 | -0.5 | – | – | –
Nthl1 | DRSC03183 | 0.25 | 0.28 | – | – | –
mil | DRSC15696 | 0.26 | 0.14 | – | – | –
CG14339 | DRSC00369 | 0.03 | 0.12 | – | – | –
cass | DRSC01850 | 0.03 | -0.07 | – | – | –
CG14483 | DRSC06455 | 0.15 | 0.16 | – | – | –
CG8089 | DRSC07074 | 0.4 | 0.47 | – | – | –
CG9213 | DRSC20170 | 0.32 | 0.41 | – | – | –
CG8066 | DRSC16374 | 0.27 | 0.45 | – | – | –
CG11771 | DRSC14379 | 0.41 | 0 | – | – | –
Nop17l | DRSC06556 | 0.33 | 0.41 | – | – | –
CG31087 | DRSC14253 | 0.1 | -0.01 | – | – | –
CG9254 | DRSC01969 | 0.78 | 0.44 | – | – | –
beta-Man | DRSC12208 | 0.27 | 0.27 | – | – | –
beta-Man | DRSC12209 | 0.35 | 0.42 | – | – | –
CG8701 | DRSC07237 | 0.26 | 0.32 | – | – | –
B4 | DRSC01868 | 0.11 | 0.17 | – | – | –
B4 | DRSC03175 | 0.47 | 0.02 | – | – | –
CG12723 | DRSC19499 | -0.97 | 0.36 | 0.69 | -0.31 | reduced secretion
CG14246 | DRSC14741 | 0.42 | 0.54 | 0.58 | 0.45 | –
robo1 | DRSC04712 | 0.2 | 0.12 | – | – | –
CG11426 | DRSC11658 | -0.12 | 0.27 | – | – | –
sha | DRSC06331 | 0.41 | 0.22 | – | – | –
CG14285 | DRSC14766 | 0.48 | 0.46 | – | – | –
CG13926 | DRSC08395 | 0.12 | 0.24 | – | – | –
CG9839 | DRSC16574 | 0.29 | 0.5 | – | – | –
CG30183 | DRSC04450 | 0.19 | -0.02 | – | – | –
CG30183 | DRSC04472 | 0.18 | -0.13 | – | – | –
